Laboratory results from article PMC5636874.
These are yes or no findings as the source states them, for the method shown. Binding can be weak; no strength is given. For some assays here: In cells and extracts the contact can be indirect.

How the values were obtained:
[1] = target: JNK (c-Jun N-terminal kinase, MAPK); assay: co-IP; immunoprecipitation and immunoblot from 293 T cells, unstimulated and treated with TNFα for the indicated times after serum starvation
[2] = target: JNK, bacterially expressed; assay: pull-down; in vitro binding assay with bacterially expressed purified proteins; prey and bait incubated 2 h, glutathione sepharose 2 h, washed five times with PBS, immunoblot; both purified

binding [1]	binding [2]	Binder
binds	–	PTPN1 (non-transmembrane protein tyrosine phosphatase 1) (enzyme, UniProt P18031 1-435) MEMEKEFEQIDKSGSWAAIYQDIRHEASDFPCRVAKLPKNKNRNRYRDVSPFDHSRIKLHQEDNDYINASLIKMEEAQRSYILTQGPLPNTCGHFWEMVWEQKSRGVVMLNRVMEKGSLKCAQYWPQKEEKEMIFEDTNLKLTLISEDIKSYYTVRQLELENLTTQETREILHFHYTTWPDFGVPESPASFLNFLFKVRESGSLSPEHGPVVVHCSAGIGRSGTFCLADTCLLLMDKRKDPSSVDIKKVLLEMRKFRMGLIQTADQLRFSYLAVIEGAKFIMGDSSVQDQWKELSHEDLEPPPEHIPPPPRPPKRILEPHNGKCREFFPNHQWVKEETQEDKDCPIKEEKGSPLNAAPYGIESMSQDTEVRSRVVGGSLRGAQAASPAKGEPSLPEKDEDHALSYWKPFLVNMCVATVLTAGAYLCYRFLFNSNT
–	binds	PTPN1, bacterially expressed (enzyme, UniProt P18031 1-435) MEMEKEFEQIDKSGSWAAIYQDIRHEASDFPCRVAKLPKNKNRNRYRDVSPFDHSRIKLHQEDNDYINASLIKMEEAQRSYILTQGPLPNTCGHFWEMVWEQKSRGVVMLNRVMEKGSLKCAQYWPQKEEKEMIFEDTNLKLTLISEDIKSYYTVRQLELENLTTQETREILHFHYTTWPDFGVPESPASFLNFLFKVRESGSLSPEHGPVVVHCSAGIGRSGTFCLADTCLLLMDKRKDPSSVDIKKVLLEMRKFRMGLIQTADQLRFSYLAVIEGAKFIMGDSSVQDQWKELSHEDLEPPPEHIPPPPRPPKRILEPHNGKCREFFPNHQWVKEETQEDKDCPIKEEKGSPLNAAPYGIESMSQDTEVRSRVVGGSLRGAQAASPAKGEPSLPEKDEDHALSYWKPFLVNMCVATVLTAGAYLCYRFLFNSNT
